From article PMC5477581
No constants are given. Whether binding was seen depends on the method and setting. Binding seen in cells or lysates may run through a third protein. Some results given as binding are weak or reduced against the parent protein; the word gives no strength. Sequences can lack the tags named with a protein.

Protein sequences, listed by entry. Tags and fused reporters are not part of them.
UniProt P09874: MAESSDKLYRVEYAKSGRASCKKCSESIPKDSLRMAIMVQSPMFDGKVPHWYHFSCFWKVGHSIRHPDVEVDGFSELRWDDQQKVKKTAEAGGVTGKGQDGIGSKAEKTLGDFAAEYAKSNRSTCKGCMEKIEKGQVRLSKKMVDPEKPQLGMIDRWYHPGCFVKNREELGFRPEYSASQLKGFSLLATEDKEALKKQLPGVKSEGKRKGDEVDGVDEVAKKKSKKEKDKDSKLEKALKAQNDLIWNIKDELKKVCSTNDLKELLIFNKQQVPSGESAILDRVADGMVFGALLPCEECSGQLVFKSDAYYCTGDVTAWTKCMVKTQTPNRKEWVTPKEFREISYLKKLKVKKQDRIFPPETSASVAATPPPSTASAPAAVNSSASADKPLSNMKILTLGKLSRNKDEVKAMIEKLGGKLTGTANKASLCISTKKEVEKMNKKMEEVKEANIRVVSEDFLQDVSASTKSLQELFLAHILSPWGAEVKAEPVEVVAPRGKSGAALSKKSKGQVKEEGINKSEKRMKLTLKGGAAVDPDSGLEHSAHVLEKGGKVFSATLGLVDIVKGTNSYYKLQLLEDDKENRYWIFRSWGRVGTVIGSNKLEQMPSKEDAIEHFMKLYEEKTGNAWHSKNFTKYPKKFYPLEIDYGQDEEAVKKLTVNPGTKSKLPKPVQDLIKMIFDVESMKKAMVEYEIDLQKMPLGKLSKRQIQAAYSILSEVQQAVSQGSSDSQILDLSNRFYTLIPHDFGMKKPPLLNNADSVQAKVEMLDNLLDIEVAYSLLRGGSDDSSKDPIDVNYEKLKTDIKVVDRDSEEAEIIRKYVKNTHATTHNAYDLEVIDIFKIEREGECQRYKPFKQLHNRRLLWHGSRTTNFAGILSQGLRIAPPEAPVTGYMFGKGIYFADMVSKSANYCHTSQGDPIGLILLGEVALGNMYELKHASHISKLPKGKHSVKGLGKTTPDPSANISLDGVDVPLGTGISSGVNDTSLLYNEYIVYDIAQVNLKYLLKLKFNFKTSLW

Target: T1, FLAG-AIMP2 (aminoacyl tRNA synthetase complex-interacting multifunctional protein 2) (UniProt Q13155)
T1 sequence: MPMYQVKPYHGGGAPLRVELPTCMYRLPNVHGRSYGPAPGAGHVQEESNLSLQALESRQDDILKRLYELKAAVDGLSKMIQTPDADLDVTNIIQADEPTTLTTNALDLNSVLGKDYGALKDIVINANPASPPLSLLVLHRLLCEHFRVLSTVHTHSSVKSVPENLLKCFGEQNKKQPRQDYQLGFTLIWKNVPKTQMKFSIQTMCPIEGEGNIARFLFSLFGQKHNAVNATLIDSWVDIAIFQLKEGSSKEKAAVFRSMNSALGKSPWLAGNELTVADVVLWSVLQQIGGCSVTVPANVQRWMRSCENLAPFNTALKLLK
Test: co-IP; anti-FLAG antibody on protein G Sepharose; lysates (1% NP-40 in PBS) of SH-SY5Y cells transfected with FLAG-AIMP2 with mock, WT VPS35 or D620N VPS35; 4 °C overnight; washes incl. 500 mM NaCl buffer; blots for FLAG, PARP1; IgG as negative control

For “poly(ADP-ribose) polymerase-1 (PARP1), endogenous (from UniProt P09874 1-1014) (enzyme)”, the binding was “binds”.
